{"sequences": {"note": "The chains behind the UniProt entries cited, without tags or fusion partners.", "UniProt Q9WTX6": "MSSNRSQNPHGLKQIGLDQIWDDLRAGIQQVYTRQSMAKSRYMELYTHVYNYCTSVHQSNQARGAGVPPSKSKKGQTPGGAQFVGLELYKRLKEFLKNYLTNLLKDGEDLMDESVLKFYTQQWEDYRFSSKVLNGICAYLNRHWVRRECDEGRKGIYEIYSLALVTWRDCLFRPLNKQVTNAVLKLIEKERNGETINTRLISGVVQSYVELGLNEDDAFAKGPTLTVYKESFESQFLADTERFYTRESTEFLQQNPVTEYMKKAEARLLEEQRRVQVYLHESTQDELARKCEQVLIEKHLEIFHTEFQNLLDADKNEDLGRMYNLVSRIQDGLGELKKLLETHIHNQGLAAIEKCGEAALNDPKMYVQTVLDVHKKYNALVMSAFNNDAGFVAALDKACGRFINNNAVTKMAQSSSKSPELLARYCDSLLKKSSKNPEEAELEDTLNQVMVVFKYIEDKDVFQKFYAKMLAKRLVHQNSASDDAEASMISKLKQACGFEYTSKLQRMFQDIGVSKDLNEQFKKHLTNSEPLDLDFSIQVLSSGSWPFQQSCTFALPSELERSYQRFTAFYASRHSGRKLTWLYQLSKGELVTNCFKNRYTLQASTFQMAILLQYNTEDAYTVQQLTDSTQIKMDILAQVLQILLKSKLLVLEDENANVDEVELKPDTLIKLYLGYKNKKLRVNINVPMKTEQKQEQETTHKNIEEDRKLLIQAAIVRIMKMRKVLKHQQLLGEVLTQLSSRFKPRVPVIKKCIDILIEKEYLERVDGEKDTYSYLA", "UniProt P11440": "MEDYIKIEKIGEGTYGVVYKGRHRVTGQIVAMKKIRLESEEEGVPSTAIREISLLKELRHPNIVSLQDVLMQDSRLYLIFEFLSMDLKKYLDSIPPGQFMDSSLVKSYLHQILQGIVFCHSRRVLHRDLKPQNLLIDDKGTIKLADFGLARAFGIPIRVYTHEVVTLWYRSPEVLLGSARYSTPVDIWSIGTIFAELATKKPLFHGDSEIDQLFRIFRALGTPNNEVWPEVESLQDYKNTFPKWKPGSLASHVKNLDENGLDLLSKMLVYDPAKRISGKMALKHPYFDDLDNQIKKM", "UniProt Q9Z0Z3": "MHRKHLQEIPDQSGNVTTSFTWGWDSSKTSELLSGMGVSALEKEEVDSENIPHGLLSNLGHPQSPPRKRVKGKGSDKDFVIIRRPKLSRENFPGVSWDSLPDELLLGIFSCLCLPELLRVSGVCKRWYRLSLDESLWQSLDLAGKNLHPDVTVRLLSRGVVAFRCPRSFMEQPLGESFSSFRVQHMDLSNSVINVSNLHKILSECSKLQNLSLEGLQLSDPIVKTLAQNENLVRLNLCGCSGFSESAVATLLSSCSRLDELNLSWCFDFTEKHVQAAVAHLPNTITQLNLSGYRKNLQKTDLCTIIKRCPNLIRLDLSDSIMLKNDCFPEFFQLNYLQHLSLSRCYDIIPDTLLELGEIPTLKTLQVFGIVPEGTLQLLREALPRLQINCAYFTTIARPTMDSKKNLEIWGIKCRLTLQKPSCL"}, "source": "paper PMC11937338", "note": "Results are given in words; binding and its absence hold for the method and conditions named. Binding seen in cells or lysates may run through a third protein. Some entries that bind do so weakly or less than the wild type.", "data": [{"target": "T1, Coactivator-associated arginine methyltransferase 1 (mouse (endogenous in 10T1/2 and MEF)) (UniProt Q9WVG6)", "T1 sequence": "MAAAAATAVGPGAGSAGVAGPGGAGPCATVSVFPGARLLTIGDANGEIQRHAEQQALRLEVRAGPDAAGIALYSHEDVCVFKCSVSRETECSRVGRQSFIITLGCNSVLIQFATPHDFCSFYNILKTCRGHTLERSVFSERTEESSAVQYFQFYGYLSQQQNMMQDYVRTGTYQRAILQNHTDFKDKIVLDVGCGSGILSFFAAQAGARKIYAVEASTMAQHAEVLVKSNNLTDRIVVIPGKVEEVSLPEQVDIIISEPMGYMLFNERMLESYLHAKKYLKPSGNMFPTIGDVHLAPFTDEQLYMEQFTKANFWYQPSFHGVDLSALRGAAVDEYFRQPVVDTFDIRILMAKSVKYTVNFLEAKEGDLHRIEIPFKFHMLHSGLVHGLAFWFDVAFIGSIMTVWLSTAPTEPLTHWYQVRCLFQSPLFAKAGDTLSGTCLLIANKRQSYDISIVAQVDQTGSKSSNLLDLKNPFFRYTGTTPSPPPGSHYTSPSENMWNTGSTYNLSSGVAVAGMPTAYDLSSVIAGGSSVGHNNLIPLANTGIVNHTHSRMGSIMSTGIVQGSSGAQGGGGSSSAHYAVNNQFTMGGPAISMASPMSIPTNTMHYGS", "experiment": "co-IP; IP with anti-CARM1 antibody from 10T1/2 cell lysate (RIPA buffer), protein A/G Sepharose, western blot", "values": [{"substance": "Cullin-1 (from UniProt Q9WTX6 1-776)", "binding": "binds"}, {"substance": "Cyclin-dependent kinase 1 (from UniProt P11440 1-297)", "binding": "binds"}, {"substance": "S-phase kinase-associated protein 2 (from UniProt Q9Z0Z3 1-424)", "binding": "binds"}]}]}
